Measurements: publication PMC10093845, “Inhibitory Activities of Samples on Tyrosinases Were Affected by Enzyme Species and Sample Addition Methods” (International Journal of Molecular Sciences, 2023)

Tested on: fresh-cut apple slices
Test: Chromatic aberration of fresh-cut apple slices soaked by samples
Conditions: soaked in 1 mM for 10 min, observed 0.17–24.17 h

Structure (SMILES)	inhibition of browning of apple slices
O=c1cc(CO)occ1O [kojic acid]	reduce apple slices browning to some extent
OC[C@H]1O[C@@H](Oc2ccc(O)cc2)[C@H](O)[C@@H](O)[C@@H]1O [β-arbutin]	reduce apple slices browning to some extent
